Reference: patent publication US6472415B1, “Androgen receptor suppressors in the therapy and diagnosis of prostate cancer, alopecia and other hyper-androgenic syndromes” (priority 1998, dated 2002)
At least one structure is not confirmed: it was looked up by name or label, or the drawing left a doubt.

Tested on: human prostate cancer cells LNCaP
Test: XXT cell viability assay, 72 hours
Type: cell-based
Experimental: After 72 hours, an XXT assay (Scudievo, et al., Cancer Research, 48:4827 (1988)) indicating cell viability was carried out.

## CC(O)(CNCCOCCOCCNCC(C)(O)C(=O)Nc1ccc([N+](=O)[O-])c(C(F)(F)F)c1)C(=O)Nc1ccc([N+](=O)[O-])c(C(F)(F)F)c1 (stereo not shown) [BP-676]
  Lowest drug concentration needed to abolish 50% of the cellular viability: 1.4 H 10−5 Molar
